# No constants are given. Whether binding was seen depends on the method and setting. Binding seen in cells or lysates may run through a third protein. Binding can be weak; no strength is given.
# The chains behind the UniProt entries cited, without tags or fusion partners. Where a name states a change or a piece, a line headed by the entry shows the natural chain unless it says otherwise.
# UniProt Q9FJF4: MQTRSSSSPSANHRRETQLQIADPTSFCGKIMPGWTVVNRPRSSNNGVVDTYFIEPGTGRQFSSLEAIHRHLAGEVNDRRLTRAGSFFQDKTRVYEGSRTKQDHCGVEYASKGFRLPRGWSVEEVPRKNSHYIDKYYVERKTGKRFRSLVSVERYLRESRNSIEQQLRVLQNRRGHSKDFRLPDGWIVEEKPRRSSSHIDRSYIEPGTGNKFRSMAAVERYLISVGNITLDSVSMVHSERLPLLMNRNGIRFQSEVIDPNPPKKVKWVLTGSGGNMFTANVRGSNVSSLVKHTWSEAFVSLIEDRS
# Biological target: T1, … DNA …ON 3 (IDM3) (Arabidopsis thaliana) (UniProt Q9SYQ0)
# T1 sequence: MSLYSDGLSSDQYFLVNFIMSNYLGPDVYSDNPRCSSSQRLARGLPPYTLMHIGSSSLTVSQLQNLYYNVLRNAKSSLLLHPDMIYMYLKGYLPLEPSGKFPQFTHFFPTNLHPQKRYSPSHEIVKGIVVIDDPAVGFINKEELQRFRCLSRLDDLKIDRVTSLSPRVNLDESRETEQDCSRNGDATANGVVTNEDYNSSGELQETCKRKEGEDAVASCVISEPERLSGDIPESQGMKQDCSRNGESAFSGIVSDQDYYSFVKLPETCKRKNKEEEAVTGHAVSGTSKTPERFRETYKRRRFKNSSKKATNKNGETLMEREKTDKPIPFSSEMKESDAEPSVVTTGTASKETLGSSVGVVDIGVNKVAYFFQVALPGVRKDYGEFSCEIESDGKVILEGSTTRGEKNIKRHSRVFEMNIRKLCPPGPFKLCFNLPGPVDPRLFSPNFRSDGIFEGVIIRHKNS
# Experiment: split reporter; BiFC; first protein listed tagged with nYFP, second with cYFP; YFP fluorescence imaged and quantified
substance,measurement,value
MBD7 StkyC domain (from UniProt Q9FJF4) (domain or fragment),binding,binds

# Reference: publication PMC12632923
